The source of these data is publication PMC10145169.

Sequences of proteins named here, by UniProt entry; tags and fusion partners are left off.
UniProt P29351: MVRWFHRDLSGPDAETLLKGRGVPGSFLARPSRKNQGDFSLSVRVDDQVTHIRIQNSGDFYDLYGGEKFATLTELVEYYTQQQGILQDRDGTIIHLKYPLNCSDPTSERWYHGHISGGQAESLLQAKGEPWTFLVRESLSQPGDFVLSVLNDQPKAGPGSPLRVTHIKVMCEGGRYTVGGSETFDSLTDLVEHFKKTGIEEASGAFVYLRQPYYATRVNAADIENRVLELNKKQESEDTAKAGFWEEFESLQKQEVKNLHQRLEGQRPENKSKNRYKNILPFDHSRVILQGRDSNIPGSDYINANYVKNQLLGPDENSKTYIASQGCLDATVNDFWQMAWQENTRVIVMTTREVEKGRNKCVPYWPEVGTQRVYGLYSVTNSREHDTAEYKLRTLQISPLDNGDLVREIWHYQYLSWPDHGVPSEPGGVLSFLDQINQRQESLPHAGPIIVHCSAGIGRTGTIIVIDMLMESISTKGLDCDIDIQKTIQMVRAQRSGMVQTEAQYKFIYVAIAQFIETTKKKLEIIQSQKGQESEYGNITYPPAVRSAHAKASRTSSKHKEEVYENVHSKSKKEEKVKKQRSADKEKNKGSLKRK

No constants are given. Whether binding was seen depends on the method and setting. In cells and extracts the contact can be indirect. Some binding calls cover weakened binding; strength is not graded here.

In test [1] the target is mouse wild type IDO1 stably expressed in P1.HTR mastocytoma cells (P1.IDO1) (mouse) (UniProt P28776). Kind of test: co-IP; IDO1 immunoprecipitated with a rabbit monoclonal anti-mouse IDO1 antibody (CV152) and Protein G-Sepharose from lysates of P1.HTR transfectants (50 mM Tris-HCl pH 7.5, 150 mM NaCl, 1% Nonidet P-40); cells pre-treated 4 h with epacadostat 1 uM or DMSO; partners detected by immunoblot. (In general: Immunoblotting shows a protein as a band on a membrane.)

Test [2] has as its target T1, mouse IDO1 mutant H350A lacking the catalytic activity, stably expressed in P1.HTR cells (P1.H350A) (mouse) (UniProt P28776).
T1 sequence: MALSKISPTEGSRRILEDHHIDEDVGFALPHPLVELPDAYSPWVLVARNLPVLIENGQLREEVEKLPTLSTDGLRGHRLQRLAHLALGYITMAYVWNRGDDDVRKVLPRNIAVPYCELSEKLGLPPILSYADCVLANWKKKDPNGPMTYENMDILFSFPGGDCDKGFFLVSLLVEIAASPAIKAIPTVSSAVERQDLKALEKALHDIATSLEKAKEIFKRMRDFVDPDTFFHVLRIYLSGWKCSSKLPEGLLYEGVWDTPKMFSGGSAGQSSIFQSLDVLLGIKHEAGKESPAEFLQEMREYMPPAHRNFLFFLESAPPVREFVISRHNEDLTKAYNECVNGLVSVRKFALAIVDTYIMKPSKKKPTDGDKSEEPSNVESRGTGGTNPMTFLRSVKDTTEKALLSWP
The description is as above.

Test [3] has as its target IDO1-RFP (mouse Ido1 cloned in pTagRFP-N vector) (mouse) (UniProt P28776). Kind of test: FRET or BRET; FRET microscopy (GFP/RFP pair) in fixed HeLa cells co-transfected with the two fusion proteins; 16 h after transfection cells treated 4 h with epacadostat 1 uM or DMSO.

Consider “SHP-1 (endogenous in P1.HTR transfectants) (from UniProt P29351 1-595) (enzyme)”, for which the binding entry in test [1] and in test [2] was “binds” each time. For the substance “SHP-1-GFP (Ptpn6 Mouse Tagged ORF Clone, Origene) (from UniProt P29351 1-595) (enzyme)”, the binding entry in test [3] is on record as “binds”.
